Laboratory results: patent publication US7431793B2, “Process for bonding substrates or parts and system including cyanoacrylate adhesive and accelerator composition” (Loctite (R&D) Limited, priority 2001, dated 2008)
“And” between values parts separate entries of the source, which are not always exact repeats. Equal entries are not always repeated.

Columns and labels:
[1] = Pre Spray test: activator sprayed onto substrate before application of a 10 ul drop of 401 adhesive; conditions: for Pre-CTV / Pre-Skin: 1% activator; for Pre Spray: 1.0% in IPA, cardboard substrate
[2] = Post Spray test: activator sprayed onto a 10 ul drop of 401 adhesive on a substrate (skin time, cure through volume time); conditions: for Post Spray: pyridine N-oxide derivative 1.0% in IPA; for CTV: pyridine N-oxides, Table 3; for CTV time: post spray, Table 1
[3] = On Part Time Initial, 10 ul drop of 401 adhesive
[4] = 1.0% activator in heptane, 10 ul drop of 401 adhesive, cardboard substrate
[5] = 10 ul drop of 401 adhesive, cardboard substrate
[6] = 2,6 disubstituted pyridines, 1% in IPA, 401 adhesive
[7] = 0.01% activator in heptane, 10 ul drop of 401 adhesive, cardboard substrate
[8] = 0.1% activator in heptane, 10 ul drop of 401 adhesive, cardboard substrate

| Molecule | Pre-CTV [1, 3] | Post CTV [2, 4] | Post Skin [2, 4] | Pre-Skin ([1]; On Part Time Initial) | other results |
| --- | --- | --- | --- | --- | --- |
| 2 Methyl 3(5 or 6) Ethoxy Pyrazine | 7 min | 7 s | no skin |  | Pre-CTV ([1]; On Part Time 16 hours): 35 min |
| Cc1cnc(C)c(C)n1 [2,3,5-Trimethyl] | 3 min | 10 s | no skin | no skin |  |
| Cc1nccnc1C [2,3-Dimethyl] | 3 min | 10 to 15 s | 2 to 4 s | 20 s | Pre-CTV ([1]; On Part Time 30 minutes): 9 min; Pre-CTV ([1]; On Part Time 1 hour): 12 min; Pre-CTV ([1]; On Part Time 16 hours): >90 min |
| Cc1cc[n+]([O-])c(C)c1 [2,4-dimethyl, 2,4-dimethyl pyridine N-oxide] |  |  |  |  | Post Spray [2, 5]: 30 s; CTV [2]: 30 s |
| Cc1cnc(C)cn1 [2,5-Dimethyl, 2,5-dimethyl pyrazine] | 20 min | 10 to 15 s | 2 to 4 s | 60 s |  |
| Cc1cccc(C)n1 [2,6 Lutidine, 2,6-dimethyl pyridine, reference compound] |  |  |  |  | reactivity as initiator / post spray behaviour, in words [2]: only caused skinning; Post CTV [2, 6]: >300 s |
| Cc1cncc(C)n1 [2,6-Dimethyl, 2,6-dimethyl pyrazine] | 8 to 10 min | ~840 s and ~900 s | Immediate |  | Post CTV [2, 7]: 600 s; Post Skin [2, 7]: no skin; Post CTV [2, 8]: ~900 s; Post Skin [2, 8]: 5 s; CTV time [2]: ~14 min |
| SCCc1cnccn1 [2-Ethane Thiol, 2-ethane thiol pyrazine] | 8 min | 5 s | Immediate | 5 s |  |
| Cc1cnccn1 [2-Methyl, 2-methyl pyrazine] |  | 60 to 180 s | 2 s |  | Post CTV [2, 7]: 180 s; Post Skin [2, 7]: no skin; Post CTV [2, 8]: 80 s; Post Skin [2, 8]: 5 s; CTV time [2]: 1 to 3 min |
| COc1nccnc1C [2-methoxy 3-methyl, 2-methoxy, 3-methyl pyrazine] | 2 min | 6 s | no skin |  | Pre-CTV ([1]; On Part Time 20 minutes): 4 min; Pre-CTV ([1]; On Part Time 1 hour): 20 min |
| CCCc1nccnc1C [2-methyl 3-n-propyl, 2-methyl 3-n-propyl pyrazine] | 2 to 3 min | 8 to 10 s | no skin |  | Pre-CTV ([1]; On Part Time 30 minutes): 7 min; Pre-CTV ([1]; On Part Time 1 hour): 8 min; Pre-CTV ([1]; On Part Time 16 hours): 60 min |
| Cc1cc[n+]([O-])cc1 [4-methyl, 4-methyl pyridine N-oxide] |  |  |  |  | Pre Spray ([1]; On Part time 30 minutes, 10 ul drop of 401 adhesive): 4 min; Pre Spray ([1]; On Part time 16 hours, 10 ul drop of 401 adhesive): 7 min; Pre Spray ([1]; On Part time initial, 10 ul drop of 401 adhesive): 4 min; Post Spray [2, 5]: 30 s; CTV [2]: 30 s |
| Cc1ccc(N(C)C)cc1 [DMPT, N,N-dimethyl-p-toluidine, reference compound] | 1 to 1.25 min | 14 s | No skin | No skin | Pre-CTV ([1]; On Part Time 15 minutes): 2.8 min; Pre-CTV ([1]; On Part Time 1 hour): 7 min |
| Cc1cccc(CO)n1 [MPM, 6-methyl-2-pyridine-methanol] |  |  |  |  | Post CTV [2, 6]: 25 to 30 s |
| Cc1cccc(CCCOCCO)n1 [MPPE, 2-(3-(6-methyl-2-pyridyl)-propoxy)ethanol] |  |  |  |  | Post CTV ([2]; 2,6 disubstituted pyridines, 1% in Heptane, 401 adhesive): 60 s |
| c1cnccn1 [Pyrazine, pyrazine] | 7 min | 10 s | no skin |  |  |
| [O-][n+]1ccccc1 [Pyridine N Oxide, Pyridine N oxide, reference compound] |  |  |  |  | reactivity as initiator / post spray behaviour, in words [2]: very slow initiator |
| c1ccncc1 [Pyridine, reference compound] |  |  |  |  | reactivity as initiator / post spray behaviour, in words [2]: only caused skinning |
| Cc1nc(C)c(C)nc1C [Tetra methyl] | 4 to 5 min | 180 s | no skin | 5 s |  |
